The values below come from PubChem BioAssay AID1487 (National Center for Advancing Translational Sciences (NCATS), 2009).

This is one part of the list. Shown are side measurements of this screen, not its main read-out; they come without a call. Most of these compounds were active or inconclusive in the main read-out, so they are no random draw. The note in brackets gives the kind of curve behind each potency; many fits are weak.

This assay is described as follows: qHTS Assay for Modulators of Lamin A Splicing. The conditions noted are these: HeLa LMNA splicing GFP/RFP minigene ratio, 48 h. In outline: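 S3 HeLa stable clones carrying a lamin A-EGFP splicing minigene plus DsRed2 were seeded at 600 cells/well in Opti-MEM with 2% FBS, pin-dosed and incubated 48 h at 37°C. Acumen cytometry (488 nm) gave the GFP/RFP total-intensity ratio.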

Setting [1] is: measured here: GFP splicing reporter channel.
Where [2] appears, read: measured here: RFP viability control channel.

Turning to `O=C1CC(c2ccco2)CC2=C1C1c3ccccc3C(=O)N1c1ccccc1N2` (stereo not drawn), the concentration at half-maximal activity (AC50) reads like this: under setting [1], 11.2 µM [falling, partial curve]; under setting [2], 35.5 µM [rising, single point].
With `CC(C)c1ccc(-c2nnn(Cc3nc4ccccc4s3)n2)cc1`, the AC50 under setting [2] was 31.6 µM [rising, single point].
As for `CN([C@@H](Cc1ccc(OS(=O)(=O)c2cccc3cnccc23)cc1)C(=O)N1CCN(c2ccccc2)CC1)S(=O)(=O)c1cccc2cnccc12`, the AC50 is, setting by setting: under setting [1], 8.91 µM [rising, partial curve]; under setting [2], 12.6 µM [rising, partial curve].
In the case of `O=c1c2sccc2nc(SCc2cc(=O)n3cc(Cl)ccc3n2)n1Cc1ccccn1`, the AC50 under setting [1] is 0.158 µM [falling, full curve, poor fit].
With `O=c1[nH]c2ccccc2nc1/C=C(\O)C(F)F`, the AC50 under setting [1] was 0.708 µM [falling, full curve] and the AC50 under setting [2] is 0.794 µM [falling, full curve, poor fit].
As for `Cc1ccc(C)n1-c1ccc(-c2nnco2)cc1`, under setting [2], the half-maximal activity concentration (AC50) is 35.5 µM [falling, single point].
On to `CCCn1c(C)cc(=O)c2cc(NC(=O)c3ccccn3)ccc21`, for which the AC50 under setting [2] was 0.02 µM [rising, full curve, poor fit].
The same measure, in the same setting: with `C/C(Cl)=C\Cn1c(Nc2ccccc2)nc2c1c(=O)n(C)c(=O)n2C` the figure was 20 µM [rising, single point]; with `O=C1c2ccccc2C(Nc2ccc3c(c2)OCO3)N1Cc1ccco1` (stereo not drawn), 35.5 µM [rising, single point]; with `CCc1nnc(NC(=O)CSc2nccn2-c2cccc(C)c2C)s1`, 2.51 µM [rising, single point].
`COc1ccc(-c2cc(N)n(S(=O)(=O)c3ccc(F)cc3)n2)cc1OC`: the half-maximal activity concentration (AC50) under setting [2] is 20 µM [rising, single point].
Same read-out and setting: with `Cc1ccc(OCC(O)C(C)NC(C)C)c2c1CCC2` (stereo not drawn) the figure was 0.00562 µM [falling, full curve, poor fit].
Same read-out and setting: the figure for `CCCCN(CCCNC(=O)CN1C(=O)COc2ccccc21)c1ccccc1` is 35.5 µM [rising, single point].
Take `Cc1ccc(CSC2=Nc3ccccc3C3=NC(CC(=O)NCc4cccs4)C(=O)N23)cc1` (stereo not drawn): the AC50 is 35.5 µM [rising, single point] under setting [1] and 14.1 µM [rising, single point] under setting [2].
With `CN(C)c1ccc(NC(=O)CN2CCN(CC(=O)Nc3ccc(Br)cc3)CC2)cc1`, the concentration at half-maximal activity (AC50) was 35.5 µM [falling, single point] under setting [1] and 35.5 µM [falling, single point] under setting [2].
As to `Cc1c(C(=O)Nc2ccc(F)cc2)oc2ccc(S(=O)(=O)N3CCC4(CC3)OCCO4)cc12`, under setting [2], the AC50 was 11.2 µM [rising, partial curve].
For `CCCCSC1=N/C(=C/c2ccsc2)C(=O)N1c1ccccc1`, under setting [2], the concentration at half-maximal activity (AC50) is 14.1 µM [rising, single point].
On to `Oc1cccc(/C=N/c2c(-c3ccco3)nc3ccccn23)c1`, for which the AC50 under setting [1] is 35.5 µM [rising, partial curve, poor fit].
As for `COc1ccc(Nc2nccc3c2nnn3C)cc1`, the concentration at half-maximal activity (AC50) under setting [2] was 31.6 µM [rising, single point].
Regarding `CCN(CC)c1ccc(/C=N/NC(=O)c2c(Cl)cnn2C)c(O)c1`, under setting [2], the half-maximal activity concentration (AC50) was 5.62 µM [rising, full curve].
With `C[C@H]1C[C@@H]2[C@H]3CCC4=CC(=O)C=C[C@@]4(C)[C@@]3(Cl)[C@@H](O)C[C@]2(C)[C@]1(OC(=O)c1ccco1)C(=O)CCl`, the AC50 is, setting by setting: under setting [1], 4.47 µM [falling, partial curve, poor fit]; under setting [2], 5.62 µM [falling, partial curve, poor fit].
Turning to `Cc1c(-c2ccccc2)c(=O)oc2c(CN3CCCC3)c(O)ccc12`, the AC50 under setting [2] was 31.6 µM [falling, partial curve].
As to `Cc1nc2ccn(Cc3ccccc3)c(=O)c2cc1C(=O)NCc1ccccc1F`, under setting [2], the AC50 is 0.447 µM [rising, full curve].
For the molecule `COc1ccc(/C=C2\CCc3ccccc3C2=O)c(OC)c1OC`, the AC50 under setting [1] is 35.5 µM [falling, single point].
Consider `Cc1cc(C)cc(NC(=O)N2CCCN(c3c(Cl)cncc3Cl)CC2)c1`, for which the AC50 was 0.0447 µM [falling, full curve, poor fit] under setting [1] and 0.02 µM [falling, full curve, poor fit] under setting [2].
Consider `CC(C)(C)OC(=O)N[C@@H](CC(=O)OCc1ccccc1)C(=O)O`, for which the AC50 under setting [2] is 0.126 µM [falling, full curve, poor fit].
Turning to `COC(=O)/C(=C\c1ccc([N+](=O)[O-])o1)NC(=O)c1ccccc1`, the AC50 by setting is: under setting [1], 12.6 µM [falling, single point]; under setting [2], 15.8 µM [falling, partial curve, poor fit].
In the case of `Cc1cc(NC(=O)CSc2nc3c(c(=O)n2-c2ccccc2)SC(C)C3)no1` (stereo not drawn), under setting [2], the AC50 was 12.6 µM [rising, single point].
Turning to `CC1Cc2ccccc2N1C(=O)CSc1nccc(=O)[nH]1` (stereo not drawn), the half-maximal activity concentration (AC50) under setting [1] is 35.5 µM [rising, single point].
In the case of `CC(C(O)c1ccc(O)cc1)N1CCC(Cc2ccccc2)CC1` (stereo not drawn), the AC50 under setting [2] is 35.5 µM [rising, single point].
Turning to `COc1ccc(-n2c(C)cc(C(=O)CSc3nn4c(=O)c(C(C)(C)C)nnc4s3)c2C)cc1`, the concentration at half-maximal activity (AC50) runs as follows: under setting [1], 11.2 µM [rising, single point]; under setting [2], 11.2 µM [rising, single point].
With `CN1CCCN(C(=O)C2CCC(C(=O)N3CCCN(C)CC3)CC2)CC1` (stereo not drawn), the AC50 under setting [1] is 7.08 µM [falling, partial curve, poor fit].
Take `NC(=O)c1sc2nc(-c3ccco3)ccc2c1N`: the AC50 under setting [1] was 11.2 µM [falling, partial curve, poor fit] and the AC50 under setting [2] was 3.55 µM [falling, partial curve, poor fit].
Regarding `Cn1ncc(Cl)c1C(=O)NCc1cc(C(C)(C)C)n[nH]1`, the AC50 is, setting by setting: under setting [1], 7.94 µM [rising, partial curve]; under setting [2], 31.6 µM [rising, single point].
For the molecule `CCn1c2ccccc2c2cc(/C=N/NC(=O)c3ccc(O)cc3)ccc21`, the concentration at half-maximal activity (AC50) under setting [1] is 35.5 µM [falling, single point].
For `Cc1nnc(SCC(=O)NC23CC4CC(CC(C4)C2)C3)n(N)c1=O`, under setting [2], the AC50 was 0.00398 µM [falling, full curve, poor fit].
`O=C(O)Cc1n[nH]c(=O)c2ccccc12`: the half-maximal activity concentration (AC50) under setting [2] is 7.08 µM [rising, full curve, poor fit].
Same read-out and setting: with `CCOC(=O)C1=C(C)NC2=C(C(=O)CC(c3cccs3)C2)C1c1cccs1` (stereo not drawn) the figure was 31.6 µM [rising, single point].
On to `COc1ccc(-c2nnc(Nc3nc4c(OC)cccc4s3)o2)cc1`, for which, under setting [1], the concentration at half-maximal activity (AC50) is 35.5 µM [falling, single point].
With `CCCc1cc(=O)[nH]c(SCC(=O)c2cc(C)n(CCC)c2C)n1`, the AC50 under setting [2] is 12.6 µM [rising, partial curve, poor fit].
Same read-out and setting: the figure for `Fc1ccc(N2CCN(C(c3cccs3)c3nnnn3CCc3ccccc3)CC2)cc1` (stereo not drawn) is 35.5 µM [rising, single point].
On to `CCN1CCN(CCCN(Cc2ccco2)C(=S)Nc2cccc(Cl)c2C)CC1`, for which, under setting [1], the AC50 is 15.8 µM [falling, partial curve].
`CC(/C=N/NC(=O)CN1CCN(Cc2ccc(Cl)cc2)CC1)=C\c1ccco1`: the concentration at half-maximal activity (AC50) is, setting by setting: under setting [1], 11.2 µM [rising, partial curve, poor fit]; under setting [2], 8.91 µM [rising, partial curve].
In the case of `CN(c1ccccc1)c1nc(-n2ccnc2)nc(-n2ccnc2)n1`, under setting [1], the half-maximal activity concentration (AC50) was 0.282 µM [falling, full curve].
Turning to `O=C(Nc1cc(Cl)ccc1Oc1ccccc1)c1ccc(F)cc1`, the half-maximal activity concentration (AC50) under setting [2] is 14.1 µM [rising, single point].
`COc1cccc(/C=N/N=C(\N)c2nonc2N)c1O`: the AC50 under setting [2] is 1.41 µM [rising, partial curve].
On to `CCc1nnc(NC(=O)Cc2cccs2)s1`, for which the AC50 by setting is: under setting [1], 5.62 µM [rising, single point]; under setting [2], 0.0562 µM [falling, full curve, poor fit].
In the case of `COc1ccc(C2C3=C(CC(C)(C)CC3=O)Nc3cc4c(cc32)OCO4)cc1` (stereo not drawn), under setting [2], the concentration at half-maximal activity (AC50) is 31.6 µM [rising, single point].
With `Cc1[nH]n(C(N)=S)c(=O)c1N=Nc1cc(-c2ccc(Br)cc2)[nH]n1`, the AC50 under setting [2] is 11.2 µM [rising, single point].
Regarding `COCCNC(=O)c1ccccc1NC(=O)CSc1ccc(C)cc1`, the AC50 under setting [1] was 0.0224 µM [falling, full curve, poor fit] and the AC50 under setting [2] was 0.0282 µM [falling, full curve].
As for `COc1ccc2nc(SCC(=O)N3CC(=O)Nc4ccccc43)c(C#N)cc2c1`, the half-maximal activity concentration (AC50) by setting is: under setting [1], 1.78 µM [falling, partial curve, poor fit]; under setting [2], 5.62 µM [rising, single point].
Take `COc1ccc(-n2c(-c3ccccc3)cc3c2CCCC3=O)cc1`: the AC50 by setting is: under setting [1], 35.5 µM [rising, single point]; under setting [2], 31.6 µM [rising, single point].
`O=C(NCc1ccncc1)c1ccc(Oc2ccccc2)cc1`: the concentration at half-maximal activity (AC50) under setting [1] was 12.6 µM [falling, partial curve].
With `CCCN1CCN(c2ncnc3sc(C(=O)Nc4cccc(Cl)c4C)c(C)c23)CC1`, under setting [2], the AC50 is 5.01 µM [falling, partial curve, poor fit].
As for `COc1ccc(NC(=O)C(=O)NCC(c2cccnc2)N2CCc3ccccc3C2)cc1` (stereo not drawn), the AC50 under setting [1] is 28.2 µM [falling, partial curve, poor fit].
As to `O=C(CC1N=C2c3ccccc3N=C(SCc3ccccc3Cl)N2C1=O)NCc1cccs1` (stereo not drawn), the concentration at half-maximal activity (AC50) was 0.02 µM [falling, full curve, poor fit] under setting [1] and 0.0631 µM [falling, partial curve] under setting [2].
